# Source: PubChem BioAssay AID1671190 (National Center for Advancing Translational Sciences (NCATS), 2021)
# Sequences of proteins named here, by UniProt entry; tags and fusion partners are left off. A change or cut given only in a name is not applied to a line headed by its entry.
# UniProt P18054: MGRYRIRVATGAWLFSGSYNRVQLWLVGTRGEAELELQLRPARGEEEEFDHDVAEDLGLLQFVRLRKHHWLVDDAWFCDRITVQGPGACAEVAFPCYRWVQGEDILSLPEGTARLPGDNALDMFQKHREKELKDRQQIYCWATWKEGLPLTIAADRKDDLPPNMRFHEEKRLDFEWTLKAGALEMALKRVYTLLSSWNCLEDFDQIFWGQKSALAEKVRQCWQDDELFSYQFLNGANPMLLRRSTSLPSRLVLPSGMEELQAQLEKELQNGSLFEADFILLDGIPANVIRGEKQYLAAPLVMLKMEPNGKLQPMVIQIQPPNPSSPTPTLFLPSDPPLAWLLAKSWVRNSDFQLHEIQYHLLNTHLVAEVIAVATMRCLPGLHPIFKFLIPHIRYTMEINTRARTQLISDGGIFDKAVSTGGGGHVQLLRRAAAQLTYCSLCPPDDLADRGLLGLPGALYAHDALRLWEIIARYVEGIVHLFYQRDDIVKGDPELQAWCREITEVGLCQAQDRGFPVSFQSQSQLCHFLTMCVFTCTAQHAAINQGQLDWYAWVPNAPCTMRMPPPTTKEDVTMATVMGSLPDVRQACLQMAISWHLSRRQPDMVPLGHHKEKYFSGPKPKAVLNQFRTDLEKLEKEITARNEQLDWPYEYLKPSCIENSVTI
# Values joined by “and” are separate entries in the source; they are usually repeats but may differ in a detail not shown here. Equal entries are not always repeated. Out of some 580,000 compounds screened, about 6,100 (1.1%) were called active. This list was built around the results that the source calls inconclusive (neither active nor inactive); the mix of calls is not that of the screen. Calls follow the shape of the dose curve; as a rule, active = well fitted inhibition curve with a large enough effect; inconclusive = small, poorly fitted or top-dose-only effect, or another doubt; inactive = no such curve, though single readings can be large or run the other way. A potency beside an inconclusive call is a rough fit, not a confirmed value.
# Biological target: Polyunsaturated fatty acid lipoxygenase ALOX12 (Homo sapiens) (UniProt P18054)
# Assay: Primary qHTS assay for inhibitors of human arachidonate 12S-lipoxygenase (ALOX12): Round 2
# Conditions: purified 12hLO, xylenol orange hydroperoxide absorbance; activity change, negative = inhibition: at 108 µM (top of the series) unless noted
# Procedure, shortened: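 Purified human 12hLO (150 nM final) in 25 mM Hepes, 0.01% Triton X-100, pH 7.0 was preincubated 15 min at room temperature with compound. Then 40 uM arachidonic acid was added, 30 min. Hydroperoxide was read by Fe-XO absorbance ratio 573/405 nm.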
# % is scaled to controls: 0 for no effect and ±100 for the full control effect; potency is read from the fitted curve at half-maximal effect.
SMILES,Potency,"activity change, negative = inhibition"
CC(C)[C@H](C(=O)Nc1ccc(C(=O)NO)cc1)c1ccccc1,"inconclusive: 0.0544 µM [inhibitor, full curve]",–
Cc1ncc2c(c1OC(=O)c1ccccc1)COC(C)(C)OC2,"inconclusive: 251 µM [inhibitor, partial curve, poor fit]",–
Cc1ccc(-c2csc3ncnc(NCCC(=O)O)c23)cc1,–,inactive: 8.14%
CCCCN(CC)c1nc(-c2ccc([N+](=O)[O-])cc2)nc2ccccc12,"inconclusive: 31.6 µM [inhibitor, partial curve, poor fit]",–
COC(=O)[C@H](CC(C)C)N(Cc1cn(Cc2ccccc2)nn1)S(=O)(=O)c1ccc(F)cc1Br,"inconclusive: 28.2 µM [inhibitor, partial curve]",–
CCOc1ccc(OCc2ccc(C(=O)NCc3ccncc3)o2)cc1,–,inactive: -2.29%
C=CCOc1ccc(C(=O)NCC(F)(F)F)cc1,"inconclusive: 44.7 µM [inhibitor, single point]",–
CCOC(=O)/C(=N/Nc1ccc(Br)cc1)N1CC(C)OC(C)C1 (stereo not given),"inconclusive: 12.6 µM [inhibitor, partial curve, poor fit]",–
Cc1ccc(CNCc2ccco2)cc1,"inconclusive: 31.6 µM [inhibitor, partial curve, poor fit] and inconclusive: 794 nM [inhibitor, full curve, poor fit]",–
CCc1ccc(N2C(=O)c3sc4nnc(-c5ccccc5)c(=O)n4c3C2=O)cc1,"inconclusive: 70.8 µM [inhibitor, partial curve, poor fit]",–
CC(C)(C)OC(=O)N1CCC(c2c(C(=O)NCCc3ccccc3)cnn2-c2ccc(F)cc2)CC1,–,inactive: 0.795%
O=C(C1CCN(S(=O)(=O)c2ccc(Br)s2)CC1)N1CCN(c2ccccc2)CC1,"inconclusive: 63.1 µM [inhibitor, partial curve, poor fit]",–
CC(Oc1ccccc1F)C(=O)NNC(=O)CCS(=O)(=O)c1ccccc1Cl (stereo not given),"inconclusive: 4.47 µM [inhibitor, full curve, poor fit]",–
CCCCN(C(=O)Cc1ccc(S(=O)(=O)N2CCOCC2)s1)c1c(N)n(CCCC)c(=O)[nH]c1=O,–,inactive: -4.71%
O=C(NNS(=O)(=O)c1ccc(Cl)cc1)c1cnn(-c2ccccc2)c1-n1cccc1,–,inactive: -0.858%
CN(CC1CCOCC1)C(=O)CC1C(=O)NCCN1Cc1ccc(Cl)c(F)c1 (stereo not given),"inconclusive: 14.1 µM [inhibitor, partial curve, poor fit]",–
CCCc1noc(-c2ccn3c(CNC(=O)c4cccc(N(C)C)c4)nnc3c2)n1,"inconclusive: 56.2 µM [inhibitor, single point]",–
Cc1c(C(=O)c2ccc(F)cc2F)c2ccccn2c1CCc1ccccn1,"inconclusive: 79.4 µM [inhibitor, partial curve, poor fit]",–
CSc1nnc(C)c(/C=C/NOCc2ccc(Cl)cc2)n1,"inconclusive: 44.7 µM [inhibitor, partial curve, poor fit]",–
Cc1c(Cl)cccc1NCC(=O)Nc1ccc(Cl)cc1F,"inconclusive: 39.8 µM [inhibitor, partial curve]",–

SMILES,Potency,"activity change, negative = inhibition"
Cc1ccccc1-n1c(-c2cccnc2)n[nH]c1=S,"inconclusive: 44.7 µM [inhibitor, partial curve]",–
CC(=O)Nc1ccc2nc(SCCOc3cc(C)cc(C)c3)sc2c1,"inconclusive: 112 µM [inhibitor, partial curve, poor fit]",–
COc1ccc(-c2noc([C@@H]3C[C@@H](O)CN3Cc3ccc(C)cc3)n2)cc1,"inconclusive: 63.1 µM [inhibitor, partial curve, poor fit]",–
COc1ccccc1-c1c(C)nn2c(SCC(=O)NCc3ccc(Cl)cc3)cc(C)nc12,"inconclusive: 50.1 µM [inhibitor, full curve, poor fit]",–
c1ccc(SCc2nnc3sc(-c4ccccn4)nn23)cc1,"inconclusive: 25.1 µM [inhibitor, single point]",–
CCN1C(=O)/C(=C/c2nc3ccccc3c(=O)n2-c2ccc(C)cc2)c2ccccc21,–,inactive: 1.15%
C=CCO[C@@H]1CCN2C(=O)c3cc(-c4cc(Cl)ccc4OC)ccc3NC(=O)[C@H]12,"inconclusive: 22.4 µM [inhibitor, full curve]",–
COc1ccc(/C=C2\Oc3cc(OC(=O)N4CCOCC4)ccc3C2=O)cc1,"inconclusive: 100 µM [inhibitor, single point]",–
CCCCn1c(N)c(N(CC(C)C)C(=O)Cc2ccc3c(c2)OCCO3)c(=O)[nH]c1=O,"inconclusive: 126 µM [inhibitor, single point]",–
CCOc1ccc(C(=O)Nc2nc3ccccc3[nH]2)cc1OCC,"inconclusive: 50.1 µM [inhibitor, partial curve, poor fit]",–
O=C(Nc1cccc2ccccc12)c1csc(COCCO)n1,–,inactive: -1.97%
CC1(C)CC(NC(=S)Nc2ccc(F)cc2)CC(C)(C)N1,"inconclusive: 50.1 µM [inhibitor, single point]",–
COc1cc(C)nc(OCCNC(=O)COc2ccc(Cl)cc2C)n1,–,inactive: 0%
CC(C)(C)C1CCC(C(=O)Nc2ccc(Cl)cc2)CC1 (stereo not given),"inconclusive: 0.562 µM [inhibitor, single point]",–
CCCCC[C@@H](C)N1C[C@H](COCc2ccccc2)Oc2cc(N3CCC[C@H]3CO)ccc2S1(=O)=O,"inconclusive: 44.7 µM [inhibitor, partial curve, poor fit]",–
CC(C)NC(=O)N1CCC2(CC1)NC(=O)c1ccccc1O2,"inconclusive: 1.12 µM [inhibitor, full curve, poor fit]",–
O=Cc1c(N2CCOCC2)nc2ccccn2c1=O,"inconclusive: 2.51 µM [inhibitor, full curve, poor fit]",–
Cc1ccc(S(=O)(=O)N2CCOCC2)cc1C(=O)Nc1nc(-c2ccccn2)cs1,"inconclusive: 35.5 µM [inhibitor, partial curve, poor fit]",–
O=C(O)CC(C(=O)OCC(F)(F)C(F)F)N1CCOCC1 (stereo not given),"inconclusive: 17.8 µM [inhibitor, full curve, poor fit]",–
NC(=O)c1c(NC(NC(=O)c2ccco2)C(=O)c2ccc(Cl)cc2)sc2c1CCCC2 (stereo not given),"inconclusive: 35.5 µM [inhibitor, partial curve]",–

SMILES,Potency,"activity change, negative = inhibition"
Cc1ccc(OC(=O)N(C)C[C@@H]2OCc3cn(nn3)CCCC(=O)N([C@H](C)CO)C[C@H]2C)cc1,"inconclusive: 56.2 µM [inhibitor, partial curve, poor fit]",–
CCc1nnsc1C(=O)N(C)Cc1ccc(Cl)c(Cl)c1,"inconclusive: 25.1 µM [inhibitor, single point]",–
O=C(Cn1cc(/C=C2\NC(=O)N(Cc3ccccc3)C2=O)c2ccccc21)N1CCOCC1,–,inactive: -12.3%
O=C1CC(NC2CCSCC2)CN1CCc1cccc(Cl)c1 (stereo not given),"inconclusive: 20 µM [inhibitor, full curve]",–
Cc1cccc(C(=O)NC(=S)NNC(=O)c2ccccc2Cl)c1,active: 39.8 µM,–
CC(=O)c1c(C)[nH]c(C(=O)Nc2nccs2)c1C,–,inactive: -5.52%
CN1CCc2nc3sc(C(=O)C45CC6CC(CC(C6)C4)C5)c(N)c3cc2C1,"inconclusive: 56.2 µM [inhibitor, partial curve, poor fit]",–
NC(c1csc(Nc2cc(Oc3ccccc3)ncn2)n1)C1CCCCC1 (stereo not given),"inconclusive: 89.1 µM [inhibitor, partial curve, poor fit]",–
Fc1ccc(-c2csc(-c3ccsc3)n2)cc1F,"inconclusive: 35.5 µM [inhibitor, partial curve, poor fit]",–
O=C(CSc1nnc2ccc(-c3ccco3)nn12)N1CCOCC1,"inconclusive: 3.55 µM [inhibitor, single point]",–
CC(C)(C)C1CCc2c(sc(NC(=O)c3ccc(Cl)cc3)c2C(=O)NCc2ccco2)C1 (stereo not given),–,inactive: -21.7%
O=S(=O)(NCC(c1cccs1)S(=O)(=O)c1ccccc1)c1ccc(F)c(C(F)(F)F)c1 (stereo not given),"inconclusive: 79.4 µM [inhibitor, partial curve, poor fit]",–
COc1ccc(-c2[nH]c(-c3cccc(OC)c3)nc2SCC(=O)NC2CCCC2)cc1,inactive,–
COc1cc(C)nc(N2CCCC(C(=O)Nc3cccc(Cl)c3Cl)C2)n1 (stereo not given),"inconclusive: 178 µM [inhibitor, single point]",–
O=C(c1ccc(Cl)s1)N1CCN(S(=O)(=O)c2ccc(Cl)cc2)CC1,"inconclusive: 39.8 µM [inhibitor, partial curve, poor fit]",–
CC(NC(=S)Nc1ccc(Cl)cc1Cl)C(c1cccs1)N1CCCC1 (stereo not given),"inconclusive: 79.4 µM [inhibitor, partial curve, poor fit]",–
Cc1cccc(OC[C@H]2C[C@@H](NC(=O)c3cc(C)n(C)n3)[C@H](O)[C@@H]2O)n1,"inconclusive: 22.4 µM [inhibitor, full curve]",–
COc1ccc(-c2cn3nc(N4CCCC(C(=O)Nc5cc(C)cc(C)c5)C4)sc3n2)cc1 (stereo not given),"inconclusive: 158 µM [inhibitor, partial curve, poor fit]",–
CC(=O)c1ccc(N2CCN(C(=O)CCc3ncc(-c4c(F)cccc4F)o3)CC2)c(F)c1,"inconclusive: 0.398 µM [inhibitor, full curve, poor fit]",–
CC[C@]12c3[nH]c4ccc(Cl)cc4c3CCN1C(=O)[C@@H](CC(=O)NCCCN(C)C)C[C@@H]2C(=O)N1CCN(C(=O)c2ccco2)CC1,"inconclusive: 28.2 µM [inhibitor, single point]",–

# Grouped by structure, those above containing a CF3 group (2)
SMILES,Potency,"activity change, negative = inhibition"
C=CCOc1ccc(C(=O)NCC(F)(F)F)cc1,"inconclusive: 44.7 µM [inhibitor, single point]",–
O=S(=O)(NCC(c1cccs1)S(=O)(=O)c1ccccc1)c1ccc(F)c(C(F)(F)F)c1 (stereo not given),"inconclusive: 79.4 µM [inhibitor, partial curve, poor fit]",–

# Some of these compounds in order of number of heavy atoms, ascending.
SMILES,Potency,"activity change, negative = inhibition"
CC(=O)Nc1ccc2nc(SCCOc3cc(C)cc(C)c3)sc2c1,"inconclusive: 112 µM [inhibitor, partial curve, poor fit]",–
COc1ccccc1-c1c(C)nn2c(SCC(=O)NCc3ccc(Cl)cc3)cc(C)nc12,"inconclusive: 50.1 µM [inhibitor, full curve, poor fit]",–
Cc1ccc(OC(=O)N(C)C[C@@H]2OCc3cn(nn3)CCCC(=O)N([C@H](C)CO)C[C@H]2C)cc1,"inconclusive: 56.2 µM [inhibitor, partial curve, poor fit]",–
